# In the supplement of paper PMC4604168 (melanoma cell lines):
# The other results are listed elsewhere or left out. Many values rest on one well or one pass, so single values are uncertain.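 Imaging used 1,536-well plates; nuclei positive for cleaved PARP by antibody were divided by total DNA-stained nuclei to yield the apoptosis fraction. Doses for screening kept most cells viable, and cell lines differ markedly in resting and induced cleaved-PARP levels.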
# Legend:
# Experiment in all cases: cleaved PARP positive nuclei fraction relative to DMSO control; melanoma cells; higher = more apoptosis
# Details in all cases: library dose: low library concentration; 72 h
# WM115 = test system: WM115
# WM1716 = test system: WM1716
# WM1745 = test system: WM1745
# WM3526 = test system: WM3526
# WM3619 = test system: WM3619
# WM451Lu = test system: WM451Lu
Structure (SMILES),cleaved PARP positive nuclei fraction (WM115) [%],cleaved PARP positive nuclei fraction (WM1716) [%],cleaved PARP positive nuclei fraction (WM1745) [%],cleaved PARP positive nuclei fraction (WM3526) [%],cleaved PARP positive nuclei fraction (WM3619) [%],cleaved PARP positive nuclei fraction (WM451Lu) [%]
"O=C(CCCCCCC(=O)Nc1ccccc1)NO [vorinostat] + CC(C)CCN1c2nc(Nc3cc(F)c(O)c(F)c3)ncc2N(C)C(=O)C1C [BID1870] (first compound 0.08 µM, partner dose 0.2 µM)",30.4,49.6,98.1,76.9,90.1,703
"Cc1nc(Nc2ncc(C(=O)Nc3c(C)cccc3Cl)s2)cc(N2CCN(CCO)CC2)n1 [dasatanib] + O=S(=O)(c1ccccc1)N(CC(F)(F)F)c1ccc(C(O)(C(F)(F)F)C(F)(F)F)cc1 [T0901317] (first compound 0.004 µM, partner dose 1.4 µM)",248,106,189,116,87,149
"C=CCn1c(=O)c2cnc(Nc3ccc(N4CCN(C)CC4)cc3)nc2n1-c1cccc(C(C)(C)O)n1 + OCCn1cc(-c2cnc3nnn(Cc4ccc5ncccc5c4)c3n2)cn1 [PF04217903] (first compound 0.02 µM, partner dose 1 µM)",44.4,116,133,126,102,71.4
"Cc1cc(N2CCOCC2)cc2[nH]c(-c3c(NC[C@@H](O)c4cccc(Cl)c4)cc[nH]c3=O)nc12 + Oc1cc(-c2nc(-c3ccccc3)[nH]c2-c2ccncc2)ccc1Cl [L779450] (first compound 0.2 µM, partner dose 0.2 µM)",88.1,124,160,111,108,82.6
"CC(C)(C)c1cnc(CSc2cnc(NC(=O)C3CCNCC3)s2)o1 + O=C1NC(=O)/C(=C/c2ccc(-c3ccc(F)cc3O)o2)S1 [AS252424] (first compound 0.01 µM, partner dose 1 µM)",219,143,123,60.1,107,212
"C=CCNC1=C2C[C@@H](C)C[C@H](OC)[C@H](O)[C@@H](C)/C=C(\C)[C@H](OC(N)=O)[C@@H](OC)/C=C\C=C(/C)C(=O)NC(=CC1=O)C2=O [Tanespimycin] + Cn1cncc1[C@@](N)(c1ccc(Cl)cc1)c1ccc2c(c1)c(-c1cccc(Cl)c1)cc(=O)n2C [tipifarnib] (first compound 0.002 µM, partner dose 0.01 µM)",274,121,106,65.6,101,128
"COCC[n+]1c2c(n(Cc3cnccn3)c1C)C(=O)c1ccccc1C2=O + CCCCCCCCCCCC1=C(O)C(=O)C=C(O)C1=O [Embelin] (first compound 0.0004 µM, partner dose 1.2 µM)",71.6,138,105,73.8,71.6,162
"COCC[n+]1c2c(n(Cc3cnccn3)c1C)C(=O)c1ccccc1C2=O + O=C(Nc1ccccc1)c1cc([N+](=O)[O-])ccc1Cl [GW9662] (first compound 0.0004 µM, partner dose 2 µM)",202,83.5,96.2,194,130,86.7
"CO[C@@H]1[C@H](N(C)C(=O)c2ccccc2)C[C@H]2O[C@]1(C)n1c3ccccc3c3c4c(c5c6ccccc6n2c5c31)C(=O)NC4 [Midostaurin] + N#Cc1c(O)c2c(-c3ccc(-c4ccccc4O)cc3)csc2[nH]c1=O [A769662] (first compound 0.08 µM, partner dose 2 µM)",124,113,111,67.2,81.7,40.9
"C=CCNC1=C2C[C@@H](C)C[C@H](OC)[C@H](O)[C@@H](C)/C=C(\C)[C@H](OC(N)=O)[C@@H](OC)/C=C\C=C(/C)C(=O)NC(=CC1=O)C2=O [Tanespimycin] + C[C@]1(c2nc3c(C(N)=O)cccc3[nH]2)CCCN1 [Veliparib] (first compound 0.002 µM, partner dose 1.4 µM)",127,104,120,40.7,89.4,176
"Cc1ccc(NC(=O)c2cccc(N(C)C)c2)cc1NC(=O)c1ccc(O)cc1 + COc1cc(N2CCC(N3CCN(C)CC3)CC2)ccc1Nc1ncc(Cl)c(Nc2ccccc2S(=O)(=O)C(C)C)n1 [NVP-TAE684] (first compound 2 µM, partner dose 0.08 µM)",281,47,111,58.6,185,298
"OCc1c[nH]c2ccccc12 [Indole-3-carbinol] + Oc1cc(-c2nc(-c3ccccc3)[nH]c2-c2ccncc2)ccc1Cl [L779450] (first compound 0.8 µM, partner dose 0.2 µM)",121,56.7,92.3,75.6,95.8,120
"Cc1ccc(NC(=O)c2cccc(N(C)C)c2)cc1NC(=O)c1ccc(O)cc1 + Oc1cc(-c2nc(-c3ccccc3)[nH]c2-c2ccncc2)ccc1Cl [L779450] (first compound 2 µM, partner dose 0.2 µM)",77.8,110,112,92.8,88.9,237
"Cn1nnc2c(C(N)=O)ncn2c1=O [temozolomide] + O=C(Nc1cccc(Cl)c1)Nc1ncc(CCNc2ncnc3ccsc23)s1 [SNS314] (first compound 2 µM, partner dose 0.0008 µM)",92.5,82.9,87.6,53.9,118,39.9
"OCc1c[nH]c2ccccc12 [Indole-3-carbinol] + N#Cc1c(O)c2c(-c3ccc(-c4ccccc4O)cc3)csc2[nH]c1=O [A769662] (first compound 0.8 µM, partner dose 2 µM)",72.6,50.9,77.2,74.1,87.2,64.9
"CC(=O)c1c(C)c2cnc(Nc3ccc(N4CCNCC4)cn3)nc2n(C2CCCC2)c1=O [palbociclib] + O=C1NC(=O)/C(=C/c2ccc(-c3ccc(F)cc3O)o2)S1 [AS252424] (first compound 0.04 µM, partner dose 1 µM)",180,59.7,120,134,177,50.6
"Cn1c(Nc2ccc(C(F)(F)F)cc2)nc2cc(Oc3ccnc(-c4ncc(C(F)(F)F)[nH]4)c3)ccc21 + COc1cc2ncnc(Nc3ccc(Oc4ccccc4)cc3)c2cc1OC [SrcI1] (first compound 0.08 µM, partner dose 2 µM)",385,141,184,150,128,267
"C=CCn1c(=O)c2cnc(Nc3ccc(N4CCN(C)CC4)cc3)nc2n1-c1cccc(C(C)(C)O)n1 + Oc1nc(-c2ccc(C(F)(F)F)cc2)nc2c1CSCC2 [XAV939] (first compound 0.02 µM, partner dose 2 µM)",92.6,126,151,123,101,55.1
"COCC[n+]1c2c(n(Cc3cnccn3)c1C)C(=O)c1ccccc1C2=O + COc1cc2ncnc(Nc3ccc(Oc4ccccc4)cc3)c2cc1OC [SrcI1] (first compound 0.0004 µM, partner dose 2 µM)",67.9,53.1,113,58,79.4,176
"C[C@@H]1CCN(C(=O)CC#N)C[C@@H]1N(C)c1ncnc2[nH]ccc12 + Oc1nc(-c2ccc(C(F)(F)F)cc2)nc2c1CSCC2 [XAV939] (first compound 1 µM, partner dose 2 µM)",91,262,113,74.2,82.1,109
"COCC[n+]1c2c(n(Cc3cnccn3)c1C)C(=O)c1ccccc1C2=O + CCN(CC)CCCCNc1ncc2cc(-c3cc(OC)cc(OC)c3)c(NC(=O)NC(C)(C)C)nc2n1 [PD173074] (first compound 0.0004 µM, partner dose 0.1 µM)",36.6,101,109,60.4,93.2,38.5
"NC(=O)Nc1cc(-c2cccc(F)c2)sc1C(=O)N[C@H]1CCCNC1 + O=S(=O)(c1ccccc1)N(CC(F)(F)F)c1ccc(C(O)(C(F)(F)F)C(F)(F)F)cc1 [T0901317] (first compound 0.02 µM, partner dose 1.4 µM)",235,147,121,90.4,120,29.7
"CC(C)(C)c1cnc(CSc2cnc(NC(=O)C3CCNCC3)s2)o1 + COc1ccc(-c2ccc3c(N4CCOCC4)nc(N4C[C@@H](C)O[C@@H](C)C4)nc3n2)cc1CO [KU0063794] (first compound 0.01 µM, partner dose 0.02 µM)",164,117,110,69.3,126,72.5
"OCCn1cc(-c2cnc3nnn(Cc4ccc5ncccc5c4)c3n2)cn1 + COc1ccc(COc2ccc(Cc3cnc(N)nc3N)cc2OC)cc1 [GW2580] (first compound 1 µM, partner dose 1 µM)",136,133,94.8,87.3,116,120
"Cc1nc(Nc2ncc(C(=O)Nc3c(C)cccc3Cl)s2)cc(N2CCN(CCO)CC2)n1 [dasatanib] + NC(=O)Nc1cc(-c2cccc(F)c2)sc1C(=O)N[C@H]1CCCNC1 [AZD7762] (first compound 0.004 µM, partner dose 0.02 µM)",277,139,121,68.7,87.4,584
"C=CCNC1=C2C[C@@H](C)C[C@H](OC)[C@H](O)[C@@H](C)/C=C(\C)[C@H](OC(N)=O)[C@@H](OC)/C=C\C=C(/C)C(=O)NC(=CC1=O)C2=O [Tanespimycin] + O=C(Nc1ccccc1)c1cc([N+](=O)[O-])ccc1Cl [GW9662] (first compound 0.002 µM, partner dose 2 µM)",94.2,33.3,91.7,33.4,95.4,207

# Pulled one by one from the entries so far (two):
Structure (SMILES),cleaved PARP positive nuclei fraction (WM115) [%],cleaved PARP positive nuclei fraction (WM1716) [%],cleaved PARP positive nuclei fraction (WM1745) [%],cleaved PARP positive nuclei fraction (WM3526) [%],cleaved PARP positive nuclei fraction (WM3619) [%],cleaved PARP positive nuclei fraction (WM451Lu) [%]
"NC(=O)Nc1cc(-c2cccc(F)c2)sc1C(=O)N[C@H]1CCCNC1 + O=S(=O)(c1ccccc1)N(CC(F)(F)F)c1ccc(C(O)(C(F)(F)F)C(F)(F)F)cc1 [T0901317] (first compound 0.02 µM, partner dose 1.4 µM)",235,147,121,90.4,120,29.7
"Cc1ccc(NC(=O)c2cccc(N(C)C)c2)cc1NC(=O)c1ccc(O)cc1 + COc1cc(N2CCC(N3CCN(C)CC3)CC2)ccc1Nc1ncc(Cl)c(Nc2ccccc2S(=O)(=O)C(C)C)n1 [NVP-TAE684] (first compound 2 µM, partner dose 0.08 µM)",281,47,111,58.6,185,298
